Results of single-concentration screens

Data taken from ChEMBL document CHEMBL3988442, “University of Dundee, Small-Polar-MMV Screening Library” (2021).

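Whole-cell growth test on Mycobacterium tuberculosis, read after 4 days in a medium based on cholesterol and the lipid DPPC; the read-out is not stated. Compounds at 500 µM. Higher reads as more growth inhibition (inferred: compounds with an IC50 in retests scored well above the rest). Size under these conditions: about 18,000 compounds, about 900 of them at 50% or above in at least one test.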

The filed quantity is “Percent Effect” (%).
The record does not define 0% and 100%; most values in the screen are far below 50% and negative numbers occur (in some assays of this library far below -100).
The compounds are a random part of those screened.

* CC(CC#N)NS(=O)(=O)Cc1ccc(F)cc1 (stereo not shown) : -7.35%
* CN(CC(=O)Nc1ccc2oc(=O)[nH]c2c1)C1CC1 : -5.413%
* CCOc1ccccc1C(=O)N1CCC(N)CC1 : -23.45%
* CC(NCC(C)(C)C(N)=O)c1ccc(S(C)(=O)=O)cc1 (stereo not shown) : -7.936%
* CCc1nnc(C2CNCCO2)o1 (stereo not shown) : 9.757%
* CC(C)(C)C(=O)NCC(=O)N1CCOCC1 : -33.52%
* CCc1nnsc1C(=O)NC(C)CN1CCOCC1 (stereo not shown) : -8.528%
* Cc1cn2c(n1)CCC(NC(=O)COCC(F)(F)F)C2 (stereo not shown) : 8.59%
* Cc1nccn1CCCN1CCOCS1(=O)=O : 0.5062%
* c1ccc(NCCN2CCOCC2)cc1 : 12.67%
* Cc1noc(C)c1C(=O)N1CCOc2ccccc21 : 15.81%
* COc1ccc(NC(=O)CSCC#N)cc1 : 11.29%
* Cc1ccc(CNCCNCCO)s1 : -3.142%
* NC(=O)CCC1CCNCC1 : -15.6%
* CCC1(CNC(=O)NCc2nnnn2C2CC2)CCC1 : 23.66%
* N[C@@H]1CCN(Cc2ccc(C(F)(F)F)nc2)C[C@H]1O : 5.41%
* Cc1cc(C)cc(C(=O)N2CCC3(CC2)OCCO3)c1 : 15.95%
* O=C(c1cc(Cl)c[nH]1)N1CCOC(c2cccs2)C1 (stereo not shown) : 68.05%
* CC1(C)CNC(=O)CN1C(=O)CC(F)(F)F : 5.993%
* Cc1ncsc1CCN(C)C(=O)c1cnon1 : -9.822%
* Cc1noc(C)c1CN1CCC(C(N)=O)CC1 : -2.425%
* CNC(=O)c1cccc(CN(C)CC(O)COC)c1 (stereo not shown) : 10.97%
* Cc1cccc(C2CCCN2CCNS(C)(=O)=O)n1 (stereo not shown) : 8.885%
* Cc1cc2nc(CN)[nH]c2cc1C : 50.31%
* CCN1CCCC1CNS(=O)(=O)CCCC#N (stereo not shown) : -6.35%
* CC1(C)C[C@@H]1C(=O)Nc1cnccc1N1CCOCC1 : -0.4257%
* Cc1oc2ncn(C)c(=O)c2c1C(=O)N(C)C : -2.358%
* O=C1CCC(C(=O)NCC(CO)Cc2cccs2)=NN1 (stereo not shown) : 39.24%
* Cc1csc(C(=O)N[C@@H](C)C(N)=O)c1I : 8.436%
* O=C(Nc1ccccc1N1CCCC1)C1CCCN1 (stereo not shown) : 41.84%
* CCc1ccc(C(=O)NC(C)c2cccnc2)o1 (stereo not shown) : 49.74%
* OCC1(O)CCCN(Cc2nccs2)CC1 (stereo not shown) : -5.501%
* CCCNC(=O)C1CCN(C(=O)N(CC)CC)CC1 : 3.652%
* Cc1ccc(F)cc1C(=O)N1CC(=O)NCC1(C)C : 3.914%
* COc1ccccc1C(=O)NCC(=O)NCC(F)(F)F : -4.611%
* NCC(CO)Cc1ccc(Cl)cc1 (stereo not shown) : 16.11%
* CC(C)(C)S(=O)(=O)CCNC(=O)CCc1ccccc1 : 5.61%
* c1cc(CSc2nnc(NCC3CCCO3)s2)on1 (stereo not shown) : 43.22%
* CCN(CC(=O)NC)S(=O)(=O)N1CCOCC1 : -14.35%
* CC1Cc2cc(CO)ccc2O1 (stereo not shown) : 8.208%
* CCc1nsc(N2CCN(C(=O)[C@@H](C)N)CC2)n1 : 5.501%

Some entries from above, unchanged:

{"smiles": "O=C(c1cc(Cl)c[nH]1)N1CCOC(c2cccs2)C1", "stereo": "stereo not shown", "Percent Effect": 68.05}
{"smiles": "CCc1ccc(C(=O)NC(C)c2cccnc2)o1", "stereo": "stereo not shown", "Percent Effect": 49.74}
{"smiles": "COc1ccccc1C(=O)NCC(=O)NCC(F)(F)F", "Percent Effect": -4.611}
{"smiles": "CCN(CC(=O)NC)S(=O)(=O)N1CCOCC1", "Percent Effect": -14.35}